Assay results reported in article PMC7532188.
Results are given in words; binding and its absence hold for the method and conditions named. In cells and extracts the contact can be indirect. These calls come from enrichment with a bait or labelling near it, and not all partners need be listed.

Chains of the proteins cited; added tags and fusions are not shown. Lines headed by an entry give the natural chain unless they say otherwise; changes in a name come on top.
UniProt Q9UK61: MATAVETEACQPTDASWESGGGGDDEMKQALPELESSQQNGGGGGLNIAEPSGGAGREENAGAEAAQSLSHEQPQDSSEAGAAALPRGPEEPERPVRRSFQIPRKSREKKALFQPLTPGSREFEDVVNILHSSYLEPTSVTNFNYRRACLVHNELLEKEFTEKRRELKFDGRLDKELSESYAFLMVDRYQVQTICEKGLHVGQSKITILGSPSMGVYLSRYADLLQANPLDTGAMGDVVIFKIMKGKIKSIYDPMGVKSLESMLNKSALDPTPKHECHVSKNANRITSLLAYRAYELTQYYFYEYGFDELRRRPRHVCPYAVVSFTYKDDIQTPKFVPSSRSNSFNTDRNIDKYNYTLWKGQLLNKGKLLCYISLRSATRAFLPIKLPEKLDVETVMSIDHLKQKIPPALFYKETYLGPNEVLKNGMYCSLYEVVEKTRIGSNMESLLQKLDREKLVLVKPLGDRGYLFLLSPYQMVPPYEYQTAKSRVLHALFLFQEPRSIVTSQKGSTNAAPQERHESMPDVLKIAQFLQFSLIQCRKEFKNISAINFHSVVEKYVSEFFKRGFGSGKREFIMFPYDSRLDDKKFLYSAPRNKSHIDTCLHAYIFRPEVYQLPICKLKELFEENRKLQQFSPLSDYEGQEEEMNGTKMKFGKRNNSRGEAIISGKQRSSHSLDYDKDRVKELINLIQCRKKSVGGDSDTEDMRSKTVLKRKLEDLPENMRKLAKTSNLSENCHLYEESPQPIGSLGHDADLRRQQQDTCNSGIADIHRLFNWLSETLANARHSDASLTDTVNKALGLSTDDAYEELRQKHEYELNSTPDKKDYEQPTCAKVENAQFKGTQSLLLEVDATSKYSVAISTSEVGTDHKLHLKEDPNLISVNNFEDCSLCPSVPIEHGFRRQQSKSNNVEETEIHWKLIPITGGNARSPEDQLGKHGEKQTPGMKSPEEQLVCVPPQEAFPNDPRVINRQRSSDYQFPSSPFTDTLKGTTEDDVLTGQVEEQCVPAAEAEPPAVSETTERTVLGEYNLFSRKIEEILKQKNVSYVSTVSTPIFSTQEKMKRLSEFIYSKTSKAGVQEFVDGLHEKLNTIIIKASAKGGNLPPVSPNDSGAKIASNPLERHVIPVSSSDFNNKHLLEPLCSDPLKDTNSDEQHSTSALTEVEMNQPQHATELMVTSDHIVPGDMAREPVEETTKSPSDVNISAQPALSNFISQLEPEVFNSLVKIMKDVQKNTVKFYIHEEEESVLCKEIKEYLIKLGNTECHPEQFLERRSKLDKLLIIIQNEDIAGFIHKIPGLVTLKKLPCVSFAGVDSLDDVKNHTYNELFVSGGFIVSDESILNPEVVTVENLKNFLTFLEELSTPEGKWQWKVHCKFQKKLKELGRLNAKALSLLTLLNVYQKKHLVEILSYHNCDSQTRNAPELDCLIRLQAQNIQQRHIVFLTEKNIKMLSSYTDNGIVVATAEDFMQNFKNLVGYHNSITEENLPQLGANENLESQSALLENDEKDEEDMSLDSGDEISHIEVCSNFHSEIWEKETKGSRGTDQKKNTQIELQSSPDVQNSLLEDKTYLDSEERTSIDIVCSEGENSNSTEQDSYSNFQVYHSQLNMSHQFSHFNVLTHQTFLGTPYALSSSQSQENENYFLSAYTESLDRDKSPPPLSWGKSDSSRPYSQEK
UniProt Q5VUA4: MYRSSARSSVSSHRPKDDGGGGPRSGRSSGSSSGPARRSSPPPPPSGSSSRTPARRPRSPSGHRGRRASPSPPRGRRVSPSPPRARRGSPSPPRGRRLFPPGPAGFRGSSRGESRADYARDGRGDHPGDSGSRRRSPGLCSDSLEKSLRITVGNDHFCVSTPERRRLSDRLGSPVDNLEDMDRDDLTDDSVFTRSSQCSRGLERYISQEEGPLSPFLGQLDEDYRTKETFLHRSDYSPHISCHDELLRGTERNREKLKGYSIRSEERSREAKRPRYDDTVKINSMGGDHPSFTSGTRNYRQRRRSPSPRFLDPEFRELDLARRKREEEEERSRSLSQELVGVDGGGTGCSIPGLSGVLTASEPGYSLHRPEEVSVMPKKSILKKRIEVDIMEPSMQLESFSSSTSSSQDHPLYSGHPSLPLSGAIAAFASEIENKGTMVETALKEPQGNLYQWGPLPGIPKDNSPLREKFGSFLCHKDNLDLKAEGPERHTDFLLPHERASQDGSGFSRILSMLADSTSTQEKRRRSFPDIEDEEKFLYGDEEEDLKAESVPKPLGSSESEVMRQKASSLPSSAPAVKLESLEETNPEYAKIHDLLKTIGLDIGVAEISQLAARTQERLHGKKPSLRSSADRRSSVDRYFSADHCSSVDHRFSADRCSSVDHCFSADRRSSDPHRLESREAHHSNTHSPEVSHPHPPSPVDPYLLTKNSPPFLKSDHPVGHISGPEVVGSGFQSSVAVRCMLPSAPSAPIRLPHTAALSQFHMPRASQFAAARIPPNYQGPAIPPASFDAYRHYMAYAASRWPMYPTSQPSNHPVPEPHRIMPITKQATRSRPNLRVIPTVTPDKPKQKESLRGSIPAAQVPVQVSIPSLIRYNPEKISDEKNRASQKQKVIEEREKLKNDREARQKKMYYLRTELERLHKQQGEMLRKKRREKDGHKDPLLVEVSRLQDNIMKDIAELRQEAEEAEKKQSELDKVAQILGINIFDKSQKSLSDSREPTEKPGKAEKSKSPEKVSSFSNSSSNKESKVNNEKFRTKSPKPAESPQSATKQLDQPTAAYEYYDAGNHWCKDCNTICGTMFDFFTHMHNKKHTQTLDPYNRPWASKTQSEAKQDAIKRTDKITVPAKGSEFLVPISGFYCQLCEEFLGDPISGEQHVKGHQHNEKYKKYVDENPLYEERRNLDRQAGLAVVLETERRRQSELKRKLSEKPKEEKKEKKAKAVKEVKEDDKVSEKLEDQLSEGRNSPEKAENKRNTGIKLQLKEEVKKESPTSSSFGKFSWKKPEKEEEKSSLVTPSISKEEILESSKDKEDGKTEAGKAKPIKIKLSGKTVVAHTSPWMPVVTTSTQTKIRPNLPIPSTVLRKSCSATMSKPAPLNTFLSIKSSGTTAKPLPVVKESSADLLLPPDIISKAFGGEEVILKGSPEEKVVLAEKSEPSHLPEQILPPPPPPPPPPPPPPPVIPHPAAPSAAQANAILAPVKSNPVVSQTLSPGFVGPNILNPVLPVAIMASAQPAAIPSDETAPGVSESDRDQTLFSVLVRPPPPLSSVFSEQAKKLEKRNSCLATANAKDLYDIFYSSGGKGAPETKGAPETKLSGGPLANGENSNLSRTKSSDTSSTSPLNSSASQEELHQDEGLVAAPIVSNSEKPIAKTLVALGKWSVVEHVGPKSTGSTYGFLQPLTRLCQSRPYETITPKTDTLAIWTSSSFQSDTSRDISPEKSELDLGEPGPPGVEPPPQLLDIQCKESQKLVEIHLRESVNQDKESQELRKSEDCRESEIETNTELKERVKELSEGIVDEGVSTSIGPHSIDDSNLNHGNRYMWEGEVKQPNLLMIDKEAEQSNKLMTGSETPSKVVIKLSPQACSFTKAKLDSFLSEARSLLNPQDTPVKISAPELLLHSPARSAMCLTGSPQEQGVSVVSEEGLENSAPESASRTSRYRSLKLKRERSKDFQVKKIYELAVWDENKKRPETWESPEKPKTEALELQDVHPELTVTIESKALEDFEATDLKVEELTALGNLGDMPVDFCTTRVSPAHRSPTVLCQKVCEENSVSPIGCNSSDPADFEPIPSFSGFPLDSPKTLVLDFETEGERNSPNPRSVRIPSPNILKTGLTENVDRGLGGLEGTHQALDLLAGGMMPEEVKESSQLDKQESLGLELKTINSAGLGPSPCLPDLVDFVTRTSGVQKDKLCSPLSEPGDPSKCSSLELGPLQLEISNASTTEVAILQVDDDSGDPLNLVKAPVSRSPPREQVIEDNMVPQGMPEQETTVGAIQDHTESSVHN
UniProt Q14966: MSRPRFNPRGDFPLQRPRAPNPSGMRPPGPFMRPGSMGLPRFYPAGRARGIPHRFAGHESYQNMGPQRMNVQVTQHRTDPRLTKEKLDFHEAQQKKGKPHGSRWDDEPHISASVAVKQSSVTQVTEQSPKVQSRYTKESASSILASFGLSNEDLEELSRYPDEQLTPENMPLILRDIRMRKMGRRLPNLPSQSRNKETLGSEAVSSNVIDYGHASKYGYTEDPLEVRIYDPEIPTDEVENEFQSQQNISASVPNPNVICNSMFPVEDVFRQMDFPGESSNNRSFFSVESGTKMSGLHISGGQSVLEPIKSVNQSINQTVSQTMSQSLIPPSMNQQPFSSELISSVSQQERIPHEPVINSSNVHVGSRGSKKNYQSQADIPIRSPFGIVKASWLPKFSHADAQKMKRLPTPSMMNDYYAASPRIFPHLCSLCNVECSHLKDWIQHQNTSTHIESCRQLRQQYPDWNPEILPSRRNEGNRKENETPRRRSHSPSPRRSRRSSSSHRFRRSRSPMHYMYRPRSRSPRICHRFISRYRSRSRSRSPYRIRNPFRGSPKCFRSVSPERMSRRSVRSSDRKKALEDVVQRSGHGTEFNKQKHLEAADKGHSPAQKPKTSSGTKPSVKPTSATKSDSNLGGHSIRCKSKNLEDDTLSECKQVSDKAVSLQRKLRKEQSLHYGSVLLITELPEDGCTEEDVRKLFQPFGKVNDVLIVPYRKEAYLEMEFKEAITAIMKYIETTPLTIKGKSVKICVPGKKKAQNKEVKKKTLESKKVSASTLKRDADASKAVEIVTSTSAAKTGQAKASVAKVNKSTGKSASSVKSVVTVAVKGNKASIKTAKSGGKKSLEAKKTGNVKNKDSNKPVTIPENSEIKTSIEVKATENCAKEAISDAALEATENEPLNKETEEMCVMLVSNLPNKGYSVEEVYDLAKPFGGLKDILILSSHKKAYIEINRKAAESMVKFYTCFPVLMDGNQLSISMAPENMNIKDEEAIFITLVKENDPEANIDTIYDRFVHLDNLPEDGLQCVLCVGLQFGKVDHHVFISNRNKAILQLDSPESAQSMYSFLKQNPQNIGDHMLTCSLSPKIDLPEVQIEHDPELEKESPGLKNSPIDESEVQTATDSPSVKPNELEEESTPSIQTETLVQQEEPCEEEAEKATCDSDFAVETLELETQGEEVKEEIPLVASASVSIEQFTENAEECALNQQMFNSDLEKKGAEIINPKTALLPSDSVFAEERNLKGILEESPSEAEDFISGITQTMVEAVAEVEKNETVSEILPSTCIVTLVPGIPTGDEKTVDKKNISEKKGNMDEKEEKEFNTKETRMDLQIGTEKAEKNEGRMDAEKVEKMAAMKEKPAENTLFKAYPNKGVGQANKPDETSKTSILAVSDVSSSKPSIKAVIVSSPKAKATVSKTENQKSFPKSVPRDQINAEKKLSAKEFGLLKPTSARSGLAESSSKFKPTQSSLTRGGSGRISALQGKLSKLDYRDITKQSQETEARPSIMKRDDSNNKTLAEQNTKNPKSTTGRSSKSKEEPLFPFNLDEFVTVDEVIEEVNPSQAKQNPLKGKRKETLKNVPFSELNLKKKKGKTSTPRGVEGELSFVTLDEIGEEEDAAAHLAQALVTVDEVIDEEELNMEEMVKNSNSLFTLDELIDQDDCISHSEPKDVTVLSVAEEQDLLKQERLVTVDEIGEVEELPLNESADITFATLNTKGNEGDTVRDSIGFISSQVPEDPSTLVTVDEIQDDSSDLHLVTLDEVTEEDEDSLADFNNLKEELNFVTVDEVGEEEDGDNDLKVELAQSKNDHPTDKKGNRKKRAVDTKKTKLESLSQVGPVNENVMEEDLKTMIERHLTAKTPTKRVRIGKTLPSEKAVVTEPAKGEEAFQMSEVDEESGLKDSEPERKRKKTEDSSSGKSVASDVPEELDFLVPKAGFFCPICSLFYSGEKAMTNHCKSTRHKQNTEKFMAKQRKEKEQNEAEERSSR

B1: CCNK (protein, UniProt O75909 1-580)
chain: MKENKENSSPSVTSANLDHTKPCWYWDKKDLAHTPSQLEGLDPATEARYRREGARFIFDVGTRLGLHYDTLATGIIYFHRFYMFHSFKQFPRYVTGACCLFLAGKVEETPKKCKDIIKTARSLLNDVQFGQFGDDPKEEVMVLERILLQTIKFDLQVEHPYQFLLKYAKQLKGDKNKIQKLVQMAWTFVNDSLCTTLSLQWEPEIIAVAVMYLAGRLCKFEIQEWTSKPMYRRWWEQFVQDVPVDVLEDICHQILDLYSQGKQQMPHHTPHQLQQPPSLQPTPQVPQVQQSQPSQSSEPSQPQQKDPQQPAQQQQPAQQPKKPSPQPSSPRQVKRAVVVSPKEENKAAEPPPPKIPKIETTHPPLPPAHPPPDRKPPLAAALGEAEPPGPVDATDLPKVQIPPPAHPAPVHQPPPLPHRPPPPPPSSYMTGMSTTSSYMSGEGYQSLQSMMKTEGPSYGALPPAYGPPAHLPYHPHVYPPNPPPPPVPPPPASFPPPAIPPPTPGYPPPPPTYNPNFPPPPPRLPPTHAVPPHPPPGLGLPPASYPPPAVPPGGQPPVPPPIPPPGMPPVGGLGRAAWMR
B2: MED19 (protein, UniProt A0JLT2 1-244)
chain: MENFTALFGAQADPPPPPTALGFGPGKPPPPPPPPAGGGPGTAPPPTAATAPPGADKSGAGCGPFYLMRELPGSTELTGSTNLITHYNLEQAYNKFCGKKVKEKLSNFLPDLPGMIDLPGSHDNSSLRSLIEKPPILSSSFNPITGTMLAGFRLHTGPLPEQCRLMHIQPPKKKNKHKHKQSRTQDPVPPETPSDSDHKKKKKKKEEDPDRKRKKKEKKKKKNRHSPDHPGMGSSQASSSSSLR
B3: FIP1L1 (protein, UniProt Q6UN15 1-594)
chain: MSAGEVERLVSELSGGTGGDEEEEWLYGGPWDVHVHSDLAKDLDENEVERPEEENASANPPSGIEDETAENGVPKPKVTETEDDSDSDSDDDEDDVHVTIGDIKTGAPQYGSYGTAPVNLNIKTGGRVYGTTGTKVKGVDLDAPGSINGVPLLEVDLDSFEDKPWRKPGADLSDYFNYGFNEDTWKAYCEKQKRIRMGLEVIPVTSTTNKITAEDCTMEVTPGAEIQDGRFNLFKVQQGRTGNSEKETALPSTKAEFTSPPSLFKTGLPPSRNSTSSQSQTSTASRKANSSVGKWQDRYGRAESPDLRRLPGAIDVIGQTITISRVEGRRRANENSNIQVLSERSATEVDNNFSKPPPFFPPGAPPTHLPPPPFLPPPPTVSTAPPLIPPPGFPPPPGAPPPSLIPTIESGHSSGYDSRSARAFPYGNVAFPHLPGSAPSWPSLVDTSKQWDYYARREKDRDRERDRDRERDRDRDRERERTRERERERDHSPTPSVFNSDEERYRYREYAERGYERHRASREKEERHRERRHREKEETRHKSSRSNSRRRHESEEGDSHRRHKHKKSKRSKEGKEAGSEPAPEQESTEATPAE
B4: PPP1R10 (protein, UniProt Q96QC0 1-940)
chain: MGSGPIDPKELLKGLDSFLNRDGEVKSVDGISKIFSLMKEARKMVSRCTYLNILLQTRSPEILVKFIDVGGYKLLNNWLTYSKTTNNIPLLQQILLTLQHLPLTVDHLKQNNTAKLVKQLSKSSEDEELRKLASVLVSDWMAVIRSQSSTQPAEKDKKKRKDEGKSRTTLPERPLTEVKAETRAEEAPEKKREKPKSLRTTAPSHAKFRSTGLELETPSLVPVKKNASTVVVSDKYNLKPIPLKRQSNVAAPGDATPPAEKKYKPLNTTPNATKEIKVKIIPPQPMEGLGFLDALNSAPVPGIKIKKKKKVLSPTAAKPSPFEGKTSTEPSTAKPSSPEPAPPSEAMDADRPGTPVPPVEVPELMDTASLEPGALDAKPVESPGDPNQLTRKGRKRKSVTWPEEGKLREYFYFELDETERVNVNKIKDFGEAAKREILSDRHAFETARRLSHDNMEEKVPWVCPRPLVLPSPLVTPGSNSQERYIQAEREKGILQELFLNKESPHEPDPEPYEPIPPKLIPLDEECSMDETPYVETLEPGGSGGSPDGAGGSKLPPVLANLMGSMGAGKGPQGPGGGGINVQEILTSIMGSPNSHPSEELLKQPDYSDKIKQMLVPHGLLGPGPIANGFPPGGPGGPKGMQHFPPGPGGPMPGPHGGPGGPVGPRLLGPPPPPRGGDPFWDGPGDPMRGGPMRGGPGPGPGPYHRGRGGRGGNEPPPPPPPFRGARGGRSGGGPPNGRGGPGGGMVGGGGHRPHEGPGGGMGNSSGHRPHEGPGGGMGSGHRPHEGPGGSMGGGGGHRPHEGPGGGISGGSGHRPHEGPGGGMGAGGGHRPHEGPGGSMGGSGGHRPHEGPGHGGPHGHRPHDVPGHRGHDHRGPPPHEHRGHDGPGHGGGGHRGHDGGHSHGGDMSNRPVCRHFMMKGNCRYENNCAFYHPGVNGPPLP
B5: TOX4 (protein, UniProt O94842 1-621)
chain: MEFPGGNDNYLTITGPSHPFLSGAETFHTPSLGDEEFEIPPISLDSDPSLAVSDVVGHFDDLADPSSSQDGSFSAQYGVQTLDMPVGMTHGLMEQGGGLLSGGLTMDLDHSIGTQYSANPPVTIDVPMTDMTSGLMGHSQLTTIDQSELSSQLGLSLGGGTILPPAQSPEDRLSTTPSPTSSLHEDGVEDFRRQLPSQKTVVVEAGKKQKAPKKRKKKDPNEPQKPVSAYALFFRDTQAAIKGQNPNATFGEVSKIVASMWDSLGEEQKQVYKRKTEAAKKEYLKALAAYKDNQECQATVETVELDPAPPSQTPSPPPMATVDPASPAPASIEPPALSPSIVVNSTLSSYVANQASSGAGGQPNITKLIITKQMLPSSITMSQGGMVTVIPATVVTSRGLQLGQTSTATIQPSQQAQIVTRSVLQAAAAAAAAASMQLPPPRLQPPPLQQMPQPPTQQQVTILQQPPPLQAMQQPPPQKVRINLQQQPPPLQIKSVPLPTLKMQTTLVPPTVESSPERPMNNSPEAHTVEAPSPETICEMITDVVPEVESPSQMDVELVSGSPVALSPQPRCVRSGCENPPIVSKDWDNEYCSNECVVKHCRDVFLAWVASRNSNTVVFVK

Legend:
Assay in all cases: proximity labelling; BioID: HA-BirA-tagged TASOR variants in TASOR knockout cells, 50 μM biotin for 18 h, nuclei lysed, streptavidin beads, mass spectrometry; control: TASOR knockout cells with biotin but without BirA-tagged TASOR
[1] = target: HA-BirA-TASOR Y305A (human) (UniProt Q9UK61)
[2] = target: HA-BirA-TASOR, full-length (human) (UniProt Q9UK61)
[3] = target: HA-BirA-TASOR ΔPARP (human)

Molecule | binding [1] | binding [2] | binding [3]
ZNF318 (from UniProt Q5VUA4 1-2279) | binds | binds | –
ZNF638 (NP220) (from UniProt Q14966 1-1978) | binds | binds | –
endogenous MPP8 (from UniProt Q99549-1 1-860) | binds | binds | –
B1 | binds | binds | binds
B2 | binds | binds | binds
B3 | binds | binds | binds
B4 | binds | binds | binds
B5 | binds | binds | binds
